# Results taken from PMC6153280, “Roles of distal aspartate and arginine of B-class dye-decolorizing peroxidase in heterolytic hydrogen peroxide cleavage” (The Journal of Biological Chemistry, 2018).
# No constants are given. Whether binding was seen depends on the method and setting. Some binding calls cover weakened binding; strength is not graded here.
# B1: WT B-class dye-decolorizing peroxidase from Klebsiella pneumoniae (KpDyP) (enzyme, UniProt A0A0W8ATM9 1-299, looked up)
# chain: MSQVQSGILPEHCRAAIWIEANLKGDVNALREASKIFVDNVATFQAKFPDAKLGAVVAFGNNVWRQLSGGEGADELKDFPVYGKGLAPSTQYDLLIHILSARHEVNFSVAQAALAAFGDAIDVKEEIHGFRWVEERDLSGFVDGTENPAGEETRREVAVIKDGVDAGGSYVFVQRWEHNLKQLNRMSVPDQEMMIGRTKDANEEIDGDERPVTSHLSRVDLKEDGKGLKIVRQSLPYGTASGTHGLYFCAYCARLYNIEQQLLSMFGDTDGKRDAMLRFTKPVTGGYYFAPSLERIQAL
# notes: B-class dye-decolorizing peroxidase (KpDyP), Klebsiella pneumoniae; codon-optimized DNA cloned into pGEX-6P1 with primers that run from the ATG start to the stop codon; about 35 kDa per subunit; One heme b per subunit; also called WT KpDyP; source: E. coli BL21 (DE3) pLysS, purified (GSTrap, on-column HRV 3C cleavage, SEC)
# Biological target: WT B-class dye-decolorizing peroxidase from Klebsiella pneumoniae (KpDyP) (Klebsiella pneumoniae)
# Assay: crystal structure; vapor diffusion, 22 °C, PEG 3350, MgCl2, 0.1 M Tris-HCl pH 8.5; two subunits (chains A and B) in the structures; both purified
binder,measurement,value
B1,binding,binds
